Whole data set: some 33,000 sequences, median “E-score (-0.5 to 0.5)” near -0.015, cut for the highest 2% near 0.3. The list shows a part of the results.
Target: T1, Abf1 (UniProt P14164)
T1 sequence: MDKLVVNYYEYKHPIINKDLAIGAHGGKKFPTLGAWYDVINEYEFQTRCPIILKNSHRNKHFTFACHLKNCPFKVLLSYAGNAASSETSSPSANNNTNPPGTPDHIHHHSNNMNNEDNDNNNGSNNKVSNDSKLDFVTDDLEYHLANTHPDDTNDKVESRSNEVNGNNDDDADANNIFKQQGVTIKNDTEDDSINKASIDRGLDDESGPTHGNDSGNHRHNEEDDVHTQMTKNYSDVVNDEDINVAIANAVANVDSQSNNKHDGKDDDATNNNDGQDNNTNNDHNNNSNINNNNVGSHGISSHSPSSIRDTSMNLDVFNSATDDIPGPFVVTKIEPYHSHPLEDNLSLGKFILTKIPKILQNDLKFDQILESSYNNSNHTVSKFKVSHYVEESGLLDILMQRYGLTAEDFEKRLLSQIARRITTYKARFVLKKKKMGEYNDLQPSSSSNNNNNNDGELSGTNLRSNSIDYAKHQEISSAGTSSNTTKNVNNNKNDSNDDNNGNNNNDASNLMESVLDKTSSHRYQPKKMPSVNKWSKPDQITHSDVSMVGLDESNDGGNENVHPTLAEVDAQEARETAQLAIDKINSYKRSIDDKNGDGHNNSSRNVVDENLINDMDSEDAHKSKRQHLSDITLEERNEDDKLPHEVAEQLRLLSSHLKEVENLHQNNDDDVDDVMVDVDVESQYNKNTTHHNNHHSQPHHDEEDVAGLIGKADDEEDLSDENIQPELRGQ
Experiment: PBM E-score (8-mer binding enrichment) (E-score (-0.5 to 0.5)); higher = stronger / more preferred TF binding
Settings: protein concentration: 200 nM; construct: GST-full length
How it was run: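 Each ungapped eight-base word and its reverse complement, pooled, received an E-score from the Universal PBM Analysis Suite. Underlying scans, normalised with masliner, recorded fluorescent anti-GST bound to GST-tagged yeast transcription factors. These were applied at about 100-200 nM to universal all-10-mer Agilent arrays double-stranded by primer extension.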

| Sequence | PBM E-score |
| --- | --- |
| ATGTGATA | 0.291 |
| ACGAGCGC | 0.11 |
| AATTTGGC | -0.0368 |
| ACTGGAAG | -0.112 |
| GCCTAAGC | -0.184 |
| GAACGCCC | -0.126 |
| CGCCTCTA | -0.0982 |
| CCGACAGA | -0.00185 |
| GCAACAAA | -0.13 |
| CGAAGCTA | 0.0888 |
| ATGCTTGC | -0.0291 |
| ACATTACG | 0.16 |
| CCCCACAA | -0.227 |
| CTGTACAG | -0.187 |
| AGGATCCT | 0.163 |
| CTTTGGGA | -0.0244 |
| AGCGGATA | 0.0777 |
| ATCGGGGA | -0.199 |
| CGGCTCTC | -0.029 |
| GAGCTCAA | -0.11 |
| CGGCGCCC | -0.143 |
| ACCAAGAG | -0.181 |
| GGAATACA | -0.0854 |
| ACGTTCCT | 0.00976 |
| CTAACAAG | 0.0843 |

Quoted at random: 5 records from the list.

| Sequence | PBM E-score |
| --- | --- |
| GAACGCCC | -0.126 |
| CCCCACAA | -0.227 |
| CGGCTCTC | -0.029 |
| ACATTACG | 0.16 |
| ATGCTTGC | -0.0291 |

Further entries follow:

| Sequence | PBM E-score |
| --- | --- |
| GGCTAGAA | -0.138 |
| ACGCCCCT | -0.19 |
| AGAGGCGC | -0.201 |
| ACGACCAC | 0.131 |
| AGAGTGAA | -0.0316 |
| AACCCCCA | -0.296 |
| CATTTCTC | -0.00363 |
| GCACTGCC | -0.0234 |
| TGAGAAAA | 0.167 |
| GCGGCTCA | -0.0985 |
| CGTTATAG | 0.105 |
| ATGTGGTG | 0.157 |
| CAGCGGCC | -0.255 |
| AAACCGAT | -0.0616 |
| ACATATCG | 0.118 |
| CGCACCTA | -0.0566 |
| TACCCGAA | -0.0797 |
| CGTACTTC | 0.143 |
| ATAGGCAG | 0.0458 |
| ACAACAGA | -0.27 |
| GAGGTTCA | -0.0597 |
| AGCCCAGA | -0.266 |
| CCTAGCCG | -0.183 |
| CTAAAAAC | -0.0627 |
| GCGCGTCC | -0.185 |

| Sequence | PBM E-score |
| --- | --- |
| AACTTATC | 0.232 |
| ATCACCCC | 0.255 |
| CCACGTAG | -0.142 |
| CGTTAAAG | 0.276 |
| CGTGCTTC | 0.125 |
| TCGTGTCA | 0.326 |
| ACTGATTA | 0.107 |
| ACGTTAAA | 0.227 |
| AAACTATG | 0.0288 |
| CCCTGCGC | -0.0323 |
| GAGACTGC | -0.274 |
| GCGCTTCA | -0.12 |
| AAGGGGCG | -0.251 |
| AAGACCAA | -0.0328 |
| CTAGTCGA | -0.0388 |
| ACCAGACA | 0.0437 |
| GACCATGA | -0.0131 |
| CTGAACCA | -0.0203 |
| TGAATCCA | -0.0732 |
| TGCAGACA | 0.167 |
| AAGGCTGC | -0.172 |
| CTTTCAGA | 0.0967 |
| CAACGAGC | -0.0921 |
| AATCGTGC | 0.311 |
| GTCCAAAA | 0.137 |

| Sequence | PBM E-score |
| --- | --- |
| AACGACAT | 0.346 |
| AAAAAGTC | 0.164 |
| AATGCCTA | -0.212 |
| CGACGGCG | 0.171 |
| ACTTACCT | -0.165 |
| CGCCAATA | 0.0937 |
| AGTGAGAC | -0.0345 |
| TCATGGGA | -0.042 |
| CTAGGCGC | -0.152 |
| GAAGTAAA | -0.0612 |
| AACTTGAT | 0.154 |
| GGACGTAC | -0.0265 |
| AGTAGTAT | 0.201 |
| CTATACCA | 0.0431 |
| CGAGTCAG | -0.0718 |
| CAGCTGAG | -0.15 |
| ACAGCAGC | -0.0608 |
| CACTCCAG | 0.00717 |
| ACTGACTC | -0.262 |
| GATCCATA | 0.127 |
| CTGAGGTC | -0.0477 |
| CAAGTGAC | 0.242 |
| CTGGGTTA | -0.201 |
| GAGGTTCC | -0.0902 |
| CCTCTTGC | -0.173 |

| Sequence | PBM E-score |
| --- | --- |
| GAACGCCA | 0.121 |
| ACCCGGTA | 0.121 |
| TGCTTGAA | 0.135 |
| AATTAACC | -0.113 |
| AAAGCTAT | 0.00198 |
| CATAGAGC | -0.173 |
| AATGCACC | 0.0699 |
| CTGGAAGC | -0.207 |
| AAAGGCCA | 0.0628 |
| AGCAACGC | 0.0101 |
| ACATTACA | -0.036 |
| ACCAGTAA | 0.0174 |
| ATACGACA | 0.296 |
| ATAAGAAT | 0.228 |
| TAACTCAA | 0.0402 |
| CCTTGCAG | -0.321 |
| GCGAACAC | -0.139 |
| ATCTGCTG | 0.0114 |
| ATATGCGA | 0.097 |
| GGCCTCAC | -0.0867 |
| AAACTGTG | -0.0181 |
| GATGACAA | 0.369 |
| AGGCGCTC | -0.149 |
| CTCACCTC | -0.0127 |
| CCAGGGGC | -0.331 |

Part of the list above, bar-delimited:
Sequence | PBM E-score
TGCTTGAA | 0.135
AATTAACC | -0.113
AAAGCTAT | 0.00198
CATAGAGC | -0.173

Additional records.

| Sequence | PBM E-score |
| --- | --- |
| CTCCCCCA | -0.434 |
| CATTGTGA | 0.0908 |
| CCTCGGGC | -0.189 |
| CCACATTA | -0.0566 |
| ACGGAGGA | 0.0287 |
| CGCGAGTA | 0.00902 |
| AACGACGG | 0.249 |
| CTTTGTCC | 0.0656 |
| CAGCTCAC | -0.0246 |
| CAATCTGA | -0.0186 |
| CCCGCCCA | -0.209 |
| ACCCCGCC | -0.165 |
| ACCAACAG | -0.186 |
| AACCTGGT | -0.0957 |
| ACCAGGAA | -0.0084 |
| ACACCCCT | -0.297 |
| ACTAGCCT | 0.0918 |
| GGCAGACC | -0.274 |
| GCGTACCA | -0.0406 |
| AGTGGCGC | -0.00387 |
| ACCTTCGT | 0.174 |
| CGTCAGAA | 0.273 |
| CTCTTTCA | -0.214 |
| AGGGTGTG | -0.214 |
| GAGTCGGC | -0.185 |

| Sequence | PBM E-score |
| --- | --- |
| CTCCATGC | -0.265 |
| AAATGCTT | -0.0227 |
| AATCCGCC | -0.0359 |
| CCGATCGG | -0.0901 |
| GTTCGGAA | -0.0956 |
| GGCTAGGA | -0.186 |
| ACGGATGA | 0.18 |
| TCAGCACA | 0.0736 |
| ATCCAGAT | -0.0476 |
| ACGTTAGT | 0.218 |
| CCCCTTCA | -0.243 |
| AAATAGCC | -0.0941 |
| CAGATCCG | -0.136 |
| GGCAGCAC | -0.232 |
| CTTGGAAC | 0.0196 |
| CACAACTG | -0.072 |
| GCGGCGCA | 0.0484 |
| ATTGGTGC | -0.0454 |
| GAACAAGA | 0.102 |
| CTATACAA | 0.00856 |
| TAATAATA | 0.218 |
| GGTCCGGA | -0.131 |

Source: the supplement of paper PMC3334620
